Source: doi:10.1101/2025.09.09.675182
These are yes or no findings as the source states them, for the method shown. Binding seen in cells or lysates may run through a third protein. Some entries that bind do so weakly or less than the wild type. For some assays here: Tags and fused reporters may be left off the sequences shown.

Amino acid sequences for entries named in this document (tags omitted).
UniProt Q9ULW0: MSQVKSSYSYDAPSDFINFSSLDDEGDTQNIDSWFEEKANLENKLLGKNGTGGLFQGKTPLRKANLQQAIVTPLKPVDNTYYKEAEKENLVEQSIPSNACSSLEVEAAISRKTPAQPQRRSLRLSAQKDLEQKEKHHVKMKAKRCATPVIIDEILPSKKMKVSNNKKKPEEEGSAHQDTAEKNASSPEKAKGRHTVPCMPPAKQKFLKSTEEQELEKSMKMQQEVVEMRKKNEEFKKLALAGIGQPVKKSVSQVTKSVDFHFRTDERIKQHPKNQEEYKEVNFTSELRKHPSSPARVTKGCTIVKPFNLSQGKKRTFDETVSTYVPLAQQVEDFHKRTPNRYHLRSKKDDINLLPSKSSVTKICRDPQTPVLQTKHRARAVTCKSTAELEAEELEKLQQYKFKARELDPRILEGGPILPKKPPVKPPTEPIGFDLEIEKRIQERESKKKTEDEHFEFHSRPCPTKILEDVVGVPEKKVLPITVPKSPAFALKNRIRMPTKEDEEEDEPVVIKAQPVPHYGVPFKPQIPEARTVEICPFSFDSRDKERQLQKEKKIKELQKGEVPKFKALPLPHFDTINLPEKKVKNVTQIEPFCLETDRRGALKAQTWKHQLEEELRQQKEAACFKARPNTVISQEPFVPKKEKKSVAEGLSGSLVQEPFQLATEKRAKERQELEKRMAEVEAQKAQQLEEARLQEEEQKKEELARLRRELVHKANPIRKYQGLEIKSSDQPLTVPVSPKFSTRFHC

T1: His-mmCKAP2-GFP-Strep fragment, C-terminus (550-664) (mouse) (UniProt Q3V1H1)
T1 sequence: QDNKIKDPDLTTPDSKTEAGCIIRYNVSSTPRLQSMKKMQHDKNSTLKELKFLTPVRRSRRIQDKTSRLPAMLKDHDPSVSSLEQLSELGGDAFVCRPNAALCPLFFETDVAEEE

T2: His-mmCKAP2-GFP-Strep fragment, alpha-helical bundle (346-549) (mouse) (UniProt Q3V1H1)
T2 sequence: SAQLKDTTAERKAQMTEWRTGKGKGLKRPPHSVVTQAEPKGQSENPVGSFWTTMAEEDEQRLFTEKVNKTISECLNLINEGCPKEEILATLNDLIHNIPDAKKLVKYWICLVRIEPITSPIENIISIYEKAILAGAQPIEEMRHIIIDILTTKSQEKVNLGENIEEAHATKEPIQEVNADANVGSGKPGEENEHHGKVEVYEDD

T3: His-mmCKAP2-GFP-Strep fragment, N-terminal alpha-helical domain (1-60) (mouse) (UniProt Q3V1H1)
T3 sequence: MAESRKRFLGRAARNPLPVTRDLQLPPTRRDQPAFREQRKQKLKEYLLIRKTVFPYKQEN

T4: Cytoskeleton Associated Protein-2 (CKAP2) (human (endogenous in RPE1)) (UniProt Q8WWK9)
T4 sequence: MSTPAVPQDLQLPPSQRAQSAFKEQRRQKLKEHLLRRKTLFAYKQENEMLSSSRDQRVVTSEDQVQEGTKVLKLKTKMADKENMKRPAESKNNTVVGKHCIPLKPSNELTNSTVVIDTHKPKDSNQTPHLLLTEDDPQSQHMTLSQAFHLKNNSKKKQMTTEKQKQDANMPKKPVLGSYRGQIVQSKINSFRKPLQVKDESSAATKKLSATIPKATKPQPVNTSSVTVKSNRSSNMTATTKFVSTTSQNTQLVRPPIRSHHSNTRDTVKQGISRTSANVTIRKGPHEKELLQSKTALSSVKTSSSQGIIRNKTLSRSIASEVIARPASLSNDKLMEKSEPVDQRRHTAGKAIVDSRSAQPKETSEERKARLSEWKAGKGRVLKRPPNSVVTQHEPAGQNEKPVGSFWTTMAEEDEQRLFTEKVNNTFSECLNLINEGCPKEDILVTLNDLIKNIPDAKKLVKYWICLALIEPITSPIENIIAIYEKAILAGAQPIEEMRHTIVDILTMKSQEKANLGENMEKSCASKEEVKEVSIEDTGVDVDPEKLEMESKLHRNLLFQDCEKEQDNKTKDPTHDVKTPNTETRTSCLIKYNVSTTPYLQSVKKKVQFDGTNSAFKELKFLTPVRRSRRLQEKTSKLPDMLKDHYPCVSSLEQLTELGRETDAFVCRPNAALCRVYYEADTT


Assays:
[1] = biological target: T1, His-mmCKAP2-GFP-Strep fragment, C-terminus (550-664) (mouse); assay: pull-down
[2] = biological target: T2, His-mmCKAP2-GFP-Strep fragment, alpha-helical bundle (346-549) (mouse); assay: pull-down
[3] = biological target: T3, His-mmCKAP2-GFP-Strep fragment, N-terminal alpha-helical domain (1-60) (mouse); assay: pull-down
[4] = biological target: T4, Cytoskeleton Associated Protein-2 (CKAP2) (human (endogenous in RPE1)); assay: co-IP

| Molecule | binding [1] | binding [2] | binding [3] | binding [4] |
| --- | --- | --- | --- | --- |
| TPX2 (from UniProt Q9ULW0 1-747) | binds | no binding | binds | binds |
| Aurora Kinase A (enzyme, UniProt O14965 1-403) MDRSKENCISGPVKATAPVGGPKRVLVTQQFPCQNPLPVNSGQAQRVLCPSNSSQRIPLQAQKLVSSHKPVQNQKQKQLQATSVPHPVSRPLNNTQKSKQPLPSAPENNPEEELASKQKNEESKKRQWALEDFEIGRPLGKGKFGNVYLAREKQSKFILALKVLFKAQLEKAGVEHQLRREVEIQSHLRHPNILRLYGYFHDATRVYLILEYAPLGTVYRELQKLSKFDEQRTATYITELANALSYCHSKRVIHRDIKPENLLLGSAGELKIADFGWSVHAPSSRRTTLCGTLDYLPPEMIEGRMHDEKVDLWSLGVLCYEFLVGKPPFEANTYQETYKRISRVEFTFPDFVTEGARDLISRLLKHNPSQRPMLREVLEHPWITANSSKPSNCQNKESASKQS |  | no binding |  |  |
